PubChem BioAssay AID1259424, University of Nebraska Medical Center | 2018
In all, the deposit lists about 14,000 reagents; this is a part drawn at random. 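Higher correlation or smaller distance means closer resemblance to KSR1 loss; control wells, including KSR1 knockdowns, recur on many plates.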 No sequences are given here. Not given: the time to read-out.

Test: 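Rank knockdowns across the genome by resemblance to the KSR1 depletion profile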 (primary screen)
Cells: human HCT116 colon cancer cells
Reagents: siRNA pool against human genes, 50 nM
Read-out: 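Log2 levels of six mRNAs (branched-DNA multiplex), adjusted by two reference genes and the non-targeting median, then scored against the average KSR1 knockdown pattern as Pearson r and euclidean distance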
Direction: mean correlation with KSR1 profile and KSR1 correlation: higher = expression change more like KSR1 knockdown; mean distance from KSR1 profile: higher = expression change less like KSR1 knockdown

Gene	mean correlation with KSR1 profile	mean distance from KSR1 profile	KSR1 correlation, replicate 1	KSR1 correlation, replicate 2	KSR1 correlation, replicate 3
CTLA4 (cytotoxic T-lymphocyte associated protein 4)	-0.654	2.15	-0.855	-0.643	-0.662
CLEC3A (C-type lectin domain family 3 member A)	0.256	1.27	0.164	0.0805	0.602
UBE2D3 (ubiquitin conjugating enzyme E2 D3)	0.25	2.95	0.279	0.138	0.238
NAA16 (N-alpha-acetyltransferase 16, NatA auxiliary subunit)	-0.0108	2.41	0.296	0.456	-0.467
HELLS (helicase, lymphoid specific)	0.273	2.25	0.113	0.0685	0.441
CENPH (centromere protein H)	-0.343	2.69	-0.321	-0.395	-0.339
NUDT11 (nudix hydrolase 11)	-0.431	2.29	-0.584	-0.307	-0.186
CA3 (carbonic anhydrase 3)	0.148	1.29	0.135	0.147	0.00325
PLAA (phospholipase A2 activating protein)	-0.0486	4.01	-0.0416	-0.0394	-0.094
SYF2 (SYF2 pre-mRNA splicing factor)	-0.8	1.89	-0.713	-0.562	-0.948
TRMT9B (tRNA methyltransferase 9B (putative))	-0.358	2.62	-0.341	-0.492	-0.385
CYBA (cytochrome b-245 alpha chain)	-0.0966	4.14	0.00933	-0.0398	0.0272
MTHFD1	-0.466	2.46	-0.489	-0.565	-0.946
CD244 (CD244 molecule)	0.331	1.82	0.396	0.304	0.306
MPP4 (MAGUK p55 scaffold protein 4)	-0.433	2.44	-0.427	-0.483	-0.322
SENP6 (SUMO specific peptidase 6)	-0.258	2.36	0.0676	-0.435	-0.435
RTL8C (retrotransposon Gag like 8C)	-0.35	2.3	-0.22	-0.319	-0.368
GPR20 (G protein-coupled receptor 20)	0.612	2.04	0.592	0.635	0.463
PPP1R1A (protein phosphatase 1 regulatory inhibitor subunit 1A)	0.575	1.23	0.266	0.583	0.562
SIRT2 (sirtuin 2)	-0.237	2.42	-0.4	-0.185	-0.285
ID1 (inhibitor of DNA binding 1)	-0.429	3.4	-0.453	-0.532	-0.444
PRKACA (protein kinase cAMP-activated catalytic subunit alpha)	0.153	2.07	0.539	-0.0202	-0.0445
ADAMTS2 (ADAM metallopeptidase with thrombospondin type 1 motif 2)	0.27	5.09	0.381	0.405	0.389
DNAH5 (dynein axonemal heavy chain 5)	-0.182	1.72	0.102	-0.693	0.361
KRABD4 (KRAB domain containing 4)	-0.518	2.36	-0.457	-0.505	-0.553
TLN2 (talin 2)	0.243	1.98	0.148	-0.0645	0.622
PRDM14 (PR/SET domain 14)	0.672	2.27	0.395	0.707	0.706
NFU1 (NFU1 iron-sulfur cluster scaffold)	0.791	0.829	0.765	0.38	0.657
CCT3 (chaperonin containing TCP1 subunit 3)	-0.555	2.25	0.204	-0.534	-0.33
BRK1 (BRICK1 subunit of SCAR/WAVE actin nucleating complex)	0.523	1.73	0.507	0.395	0.461
DGKZ (diacylglycerol kinase zeta)	-0.719	5.23	-0.804	-0.774	-0.638
MITF (melanocyte inducing transcription factor)	-0.54	3.31	0.0228	-0.581	-0.605
SEMA6B (semaphorin 6B)	-0.701	2.35	-0.757	-0.726	-0.433
UGT1A1 (UDP glucuronosyltransferase family 1 member A1)	-0.487	2.82	-0.497	-0.351	-0.743
HAL (histidine ammonia-lyase)	-0.0917	2.26	0.0315	-0.266	-0.191
GLTP (glycolipid transfer protein)	-0.34	4.27	-0.59	-0.231	-0.155
BASP1 (brain abundant membrane attached signal protein 1)	-0.621	2.25	-0.878	-0.675	-0.425
FOXC1 (forkhead box C1)	0.71	1.47	0.516	0.512	0.824
GATA6 (GATA binding protein 6)	0.198	1.91	0.283	-0.066	-0.14
DSP (desmoplakin)	0.0907	3.55	0.0374	0.372	-0.119
BCLAF1 (BCL2 associated transcription factor 1)	0.0403	1.72	0.439	0.516	-0.344
RP1 (RP1 axonemal microtubule associated)	-0.163	3.33	-0.18	-0.254	-0.0439
MZB1 (marginal zone B and B1 cell specific protein)	-0.394	2.46	-0.446	-0.0944	-0.277
POR (cytochrome p450 oxidoreductase)	0.07	2.7	0.0814	0.0854	-0.00521
ACTN1 (actinin alpha 1)	-0.162	1.81	-0.074	-0.411	-0.106
ZNF280D (zinc finger protein 280D)	-0.659	6.48	-0.586	-0.00851	-0.1
DNAI7 (dynein axonemal intermediate chain 7)	0.114	3.01	-0.206	0.27	0.394
SPTLC1 (serine palmitoyltransferase long chain base subunit 1)	-0.208	3.8	-0.251	-0.166	-0.297
TSSK3 (testis specific serine kinase 3)	-0.192	2.31	0.0393	-0.375	-0.567
INCENP (inner centromere protein)	0.0566	2.97	0.105	0.016	-0.108
IRF6 (interferon regulatory factor 6)	0.762	0.765	0.71	0.505	0.683
TMOD4 (tropomodulin 4)	0.326	1.3	-0.149	0.35	0.0421
ENTREP3 (endosomal transmembrane epsin interactor 3)	0.504	1.83	0.0566	0.581	0.691
PIK3C2G	0.83	1.24	0.951	0.765	0.652
COL5A1 (collagen type V alpha 1 chain)	-0.455	1.49	-0.274	-0.675	-0.351
LIN37 (lin-37 DREAM MuvB core complex component)	-0.264	3.73	0.4	0.435	-0.56
QRICH1 (glutamine rich 1)	-0.136	2.21	-0.626	0.186	-0.468
FZD10 (frizzled class receptor 10)	0.804	1.3	0.79	0.761	0.799
NCF2 (neutrophil cytosolic factor 2)	0.376	1.97	0.298	0.245	0.409
CLCNKB (chloride voltage-gated channel Kb)	-0.534	1.77	-0.536	-0.66	-0.462
CLDN10 (claudin 10)	-0.116	2.84	0.121	-0.149	-0.397
EMC7 (ER membrane protein complex subunit 7)	0.315	1.6	0.479	-0.511	0.219
PML (PML nuclear body scaffold)	0.176	1.86	-0.133	0.329	0.15

Not a retest: an excerpt of the list.
Gene	mean correlation with KSR1 profile	mean distance from KSR1 profile	KSR1 correlation, replicate 1	KSR1 correlation, replicate 2	KSR1 correlation, replicate 3
RP1 (RP1 axonemal microtubule associated)	-0.163	3.33	-0.18	-0.254	-0.0439
MZB1 (marginal zone B and B1 cell specific protein)	-0.394	2.46	-0.446	-0.0944	-0.277
POR (cytochrome p450 oxidoreductase)	0.07	2.7	0.0814	0.0854	-0.00521
ACTN1 (actinin alpha 1)	-0.162	1.81	-0.074	-0.411	-0.106
